PubChem BioAssay AID602196, INSERM | 2012
Test: 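Genes whose knock-down alters cisplatin killing of lung cancer cells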. System: human A549 lung cancer cells. Reagents: siRNA pair against human genes. Timing: 48 h transfection before cisplatin; time from cisplatin to read-out not stated. Challenge: cisplatin at a dose killing half of control-siRNA cells; exact dose and duration not given. Read-out: 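Shift in cisplatin death relative to control siRNA, from -50 (all cells die) to +50 (no cells die); siRNAs harmful on their own scored 0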. Scale: two-siRNA summed score (-2 to +2): higher = both siRNAs protect from cisplatin killing; -2 means both sensitise. Call rule: 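siRNAs harmful alone (LDH or WST-1) get 0; others get +1 for less and -1 for more cisplatin killing; genes are active when the two siRNAs give the same sign, summing to ±2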. Meaning of the calls: active = both siRNAs shift cisplatin killing the same way; inactive = no consistent shift, or siRNA harmful alone.
Here is an unselected part of about 23,000 reagents. Of all reagents, 455 (2%) are marked active. 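Active includes both protection and sensitisation; some change values fall well beyond the stated -50 to +50 range.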 Not all columns of the deposit are shown. Not stated in the record: the amount of reagent.

After knock-down of LOC441665 [SID131522785] the results were two-siRNA summed score (-2 to +2) = 1; inactive.
With knock-down of KRT6A [SID131522026], the record shows two-siRNA summed score (-2 to +2) = 1; inactive.
Against EPPIN [SID131513034] the deposit lists two-siRNA summed score (-2 to +2) = 0; inactive.
Depletion of MRPS21 [SID131504107] came out at: two-siRNA summed score (-2 to +2) = 0; inactive.
With knock-down of TSNARE1 [SID131503644], the screen gave two-siRNA summed score (-2 to +2) = 0; inactive.
Depletion of OR4K13 [SID131522769] came out at: two-siRNA summed score (-2 to +2) = 1; inactive.
LINC00668 [SID131503858] gave two-siRNA summed score (-2 to +2) = 0; inactive.
After knock-down of SLC1A4 [SID131519113], the record shows two-siRNA summed score (-2 to +2) = 1; inactive.
Knock-down of SLC16A12 [SID131512484] resulted in: two-siRNA summed score (-2 to +2) = 0; inactive.
With knock-down of LOC387933 [SID131522267], the record shows two-siRNA summed score (-2 to +2) = 1; inactive.
Depletion of MYH14 [SID131500336] resulted in: two-siRNA summed score (-2 to +2) = -2; active.
For LOC440682 [SID131516985], the values are two-siRNA summed score (-2 to +2) = 0; inactive.
Silencing of CCDC162P [SID131513367] came out at: two-siRNA summed score (-2 to +2) = 0; inactive.
CCDC162P [SID131517130] gave two-siRNA summed score (-2 to +2) = 0; inactive.
CCDC162P [SID131520368] gave two-siRNA summed score (-2 to +2) = 1; inactive.
With knock-down of LOC400966 [SID131509876], the screen gave two-siRNA summed score (-2 to +2) = 0; inactive.
For KCNC3 [SID131514768], the entry reads two-siRNA summed score (-2 to +2) = 0; inactive.
After knock-down of ZNF787 [SID131511667] the results were two-siRNA summed score (-2 to +2) = 0; inactive.
LOC346990 [SID131505644] scored two-siRNA summed score (-2 to +2) = 0; inactive.

2 consecutive reagents from above, for reference:
LINC00668 [SID131503858]: two-siRNA summed score (-2 to +2) = 0; activity call = inactive
SLC1A4 [SID131519113]: two-siRNA summed score (-2 to +2) = 1; activity call = inactive

More records:
After knock-down of SLC35B3 [SID131512193], the record shows two-siRNA summed score (-2 to +2) = 0; inactive.
Depletion of PPL [SID131506470] came out at: two-siRNA summed score (-2 to +2) = 0; inactive.
Silencing of CARD8 [SID131500875] resulted in: two-siRNA summed score (-2 to +2) = -1; inactive.
With knock-down of LURAP1L [SID131507280], the screen gave two-siRNA summed score (-2 to +2) = 0; inactive.
Against BMPER [SID131513653], the values are two-siRNA summed score (-2 to +2) = 0; inactive.
PSAT1 [SID131514856] scored two-siRNA summed score (-2 to +2) = 0; inactive.
Knock-down of KCNN2 [SID131508848] gave: two-siRNA summed score (-2 to +2) = 0; inactive.
With knock-down of LOC441010 [SID131507986], the screen gave two-siRNA summed score (-2 to +2) = 0; inactive.
For LOC391035 [SID131518835], the entry reads two-siRNA summed score (-2 to +2) = 0; inactive.
LOC441955 [SID131521323] showed two-siRNA summed score (-2 to +2) = 1; inactive.
Against MGC75495 [SID131521678] the deposit lists two-siRNA summed score (-2 to +2) = 1; inactive.
Against PPP2R1A [SID131504416], the values are two-siRNA summed score (-2 to +2) = 0; inactive.
